Laboratory results taken from patent US20240240078A1, “NUCLEIC ACID FUNCTIONALIZED METAL NANOPROBE AND PREPARATION METHOD THEREFOR” (SOUTHEAST UNIVERSITY, priority 2021, published 2024).
Some results were stated once for a whole list of compounds, not compound by compound.

Test system: Human normal liver cells (L02)
Assay: Cytotoxicity of metal cations by MTT assay
Format: cell-based
Conditions: cultured 24 h with metal cations, 490 nm

Substance: zinc gluconate
- cell survival rate: ≥ 90%
